{"source": "PubChem BioAssay AID1053208 (Peter MacCallum Cancer Centre, 2014)", "assay": "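Synthetic lethal interactions between gene loss and doxorubicin in osteosarcoma cells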 (primary screen)", "cells": "mouse osteosarcoma cells, early-passage culture from an engineered mouse model of fibroblastic bone tumour", "knock-down reagent": "siRNA pool against mouse genes, 40 nM", "timing": "about 120 h (48 h before drug, then 72 h with drug)", "challenge": "doxorubicin 100 nM for 72 h, roughly 30-40% inhibitory dose", "measurement": "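Viability read as ATP luminescence after 72 h of 100 nM doxorubicin or none, duplicate wells averaged, scaled to non-targeting siRNA, then expressed as robust z-scores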", "scale": "viability z-score with doxorubicin: higher = more viable cells under doxorubicin; viability z-score without drug: higher = more viable cells with knock-down alone", "active means": "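a pool counts as active when its viability z-score with doxorubicin is -2 or below and its z-score without drug lies between -2 and 2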", "note": "The whole screen tested about 17,000 reagents; below is a random part of them. 788 of them (4.7%) count as active. 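Calls rest on z-score classes alone; an extra cut-off of viability at most 70% of control was not applied to them.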 Further read-outs or replicates are left out here."}
{"gene knocked down": "Ywhaq", "PubChem SID": "SID152283211", "combined z-score class": "no change with or without drug", "viability z-score with doxorubicin": -0.9, "viability z-score without drug": 0.51, "call": "inactive"}
{"gene knocked down": "Or1e29", "PubChem SID": "SID152302034", "combined z-score class": "no change with or without drug", "viability z-score with doxorubicin": -0.45, "viability z-score without drug": 0.17, "call": "inactive"}
{"gene knocked down": "Scaf11", "PubChem SID": "SID152335722", "combined z-score class": "low cell count without drug only", "viability z-score with doxorubicin": -1.35, "viability z-score without drug": -2.02, "call": "inactive"}
{"gene knocked down": "Med27", "PubChem SID": "SID152280330", "combined z-score class": "no change with or without drug", "viability z-score with doxorubicin": -0.9, "viability z-score without drug": 0.51, "call": "inactive"}
{"gene knocked down": "Taco1", "PubChem SID": "SID152261744", "combined z-score class": "low cell count with and without drug", "viability z-score with doxorubicin": -5.73, "viability z-score without drug": -3.2, "call": "inactive"}
{"gene knocked down": "Gnmt", "PubChem SID": "SID152322401", "combined z-score class": "no change with or without drug", "viability z-score with doxorubicin": -0.34, "viability z-score without drug": -0.84, "call": "inactive"}
{"gene knocked down": "Pin1", "PubChem SID": "SID152319536", "combined z-score class": "no change with or without drug", "viability z-score with doxorubicin": -0.45, "viability z-score without drug": -0.17, "call": "inactive"}
{"gene knocked down": "Mall", "PubChem SID": "SID152291314", "combined z-score class": "no change with or without drug", "viability z-score with doxorubicin": 0, "viability z-score without drug": -0.51, "call": "inactive"}
{"gene knocked down": "Or10ab5", "PubChem SID": "SID152334555", "combined z-score class": "no change with or without drug", "viability z-score with doxorubicin": 0.9, "viability z-score without drug": 0.51, "call": "inactive"}
{"gene knocked down": "Tmem44", "PubChem SID": "SID152340948", "combined z-score class": "no change with or without drug", "viability z-score with doxorubicin": -0.45, "viability z-score without drug": -0.51, "call": "inactive"}
{"gene knocked down": "Lap3", "PubChem SID": "SID152331477", "combined z-score class": "high cell count without drug only", "viability z-score with doxorubicin": 0.9, "viability z-score without drug": 3.71, "call": "inactive"}
{"gene knocked down": "Lima1", "PubChem SID": "SID152326544", "combined z-score class": "no change with or without drug", "viability z-score with doxorubicin": 1.01, "viability z-score without drug": -0.51, "call": "inactive"}

In a second layout: entries from further up
gene knocked down	PubChem SID	combined z-score class	viability z-score with doxorubicin	viability z-score without drug	call
Or10ab5	SID152334555	no change with or without drug	0.9	0.51	inactive
Tmem44	SID152340948	no change with or without drug	-0.45	-0.51	inactive
